Ten compounds from the supplement of paper PMC5393889 can be followed below.

Each structure is given as a SMILES string. The list shows a part of the results.

In the test the test system is Caenorhabditis elegans N2. Kind of test: aldicarb interaction hit call (worm growth perturbed in combination with 10 uM aldicarb in both replicates, no effect as single agent) (binary (1 = interacts)); higher = interacts with aldicarb (growth perturbed). The note with it: first compound 1.5 µM; aldicarb concentration 10 µM; 6 days; 20 °C.
Take `Cn1nccc1C(=O)Nc1ccc(Cl)c(C(F)(F)F)c1` [wact-198] + CNC(=O)O/N=C/C(C)(C)SC [aldicarb]: the “aldicarb interaction hit call” value is inactive: 0.
To `C#CCSc1nnc(-c2ccc(OC)cc2)o1` [wact-210] + CNC(=O)O/N=C/C(C)(C)SC [aldicarb] belongs inactive: 0; to `Cc1ccc(C(=O)O/N=C(\N)c2ccncc2)c(C)c1` [wact-100] + CNC(=O)O/N=C/C(C)(C)SC [aldicarb], inactive: 0.
For `CC(C)(C)OC(=O)Nc1ccc(F)c(Cl)c1` [wact-573] + CNC(=O)O/N=C/C(C)(C)SC [aldicarb] the value was inactive: 0; for `COc1ccc(CN2CCCC(C(=O)c3ccc(Cl)cc3)C2)cc1` (stereo not given) [wact-306] + CNC(=O)O/N=C/C(C)(C)SC [aldicarb], inactive: 0; for `CCCC(=O)N1CCN(c2cc(C)c([N+](=O)[O-])cc2F)CC1C` (stereo not given) [wact-497] + CNC(=O)O/N=C/C(C)(C)SC [aldicarb], inactive: 0.
Take `COCCCNCc1cn(-c2ccc(F)cc2)nc1-c1ccccc1Cl` [wact-261] + CNC(=O)O/N=C/C(C)(C)SC [aldicarb]: the “aldicarb interaction hit call” value is inactive: 0.
As for `c1ccc(-c2ccc(-c3n[nH]cc3CNC3CCC3)cc2)cc1` [wact-251] + CNC(=O)O/N=C/C(C)(C)SC [aldicarb], the “aldicarb interaction hit call” value was inactive: 0.
For `Cc1ccc(-c2cnc(-c3ccncc3)o2)cc1` [wact-23] + CNC(=O)O/N=C/C(C)(C)SC [aldicarb] the value was inactive: 0; for `Clc1cccc(-c2noc(CN3CCC(c4ccncc4)CC3)n2)c1` [wact-321] + CNC(=O)O/N=C/C(C)(C)SC [aldicarb], inactive: 0.
